According to PubChem BioAssay (NCATS):
Inconclusive results, whose numbers are uncertain, are shown with a selection of clear calls. For some of these results: Potencies beside an inconclusive call are fits to weak or partial responses and may not hold up. Activity calls are given as the source filed them. Calls follow the shape of the dose curve; as a rule, active = well fitted curve in the direction sought with a large enough effect; inconclusive = small, poorly fitted or top-dose-only effect, or another doubt; inactive = no such curve, though single readings can be large; an effect the other way counts as inactive or inconclusive.

Assays:
[1] = Quantitative High-Throughput drug screen in 47 multiple myeloma cell lines against the NCATS MIPE library collection: Karpas417_ECACC cell viability assay (AID 1918961); settings: Karpas417 myeloma viability, CellTiter-Glo ATP luminescence, 48 h; viability (% of DMSO): at 45.8 µM (top of the series); also: potency is read from the fitted curve at half-maximal effect
Summary of the method: (§1)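 We plated 500 myeloma cells per well, pinned in MIPE 4.0 compounds, and incubated for 48 hours at 37C. ATP was then quantified with CellTiter-Glo, with DMSO and media-only wells defining 100% and 0%.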

[2] = Quantitative High-Throughput drug screen in 47 multiple myeloma cell lines against the NCATS MIPE library collection: JIM3_ECACC cell viability assay (AID 1918963; also: potency is read from the fitted curve at half-maximal effect; nearly all actives have a fitted effect of over 35% in size); settings: JIM3 myeloma viability, CellTiter-Glo ATP, 48 h; viability, percent of control: at 45.8 µM (top of the series)
Summary of the method: (§2)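 Primary qHTS used for cherry-picking: cells at 500/well, library compounds for 48 h (37C, 5% CO2), luminescent ATP assay.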

[3] = Quantitative High-Throughput drug screen in 47 multiple myeloma cell lines against the NCATS MIPE library collection: JIM1_ECACC cell viability assay (AID 1918964; also: potency is read from the fitted curve at half-maximal effect); settings: JIM1 myeloma viability, CellTiter-Glo ATP luminescence, 48 h; viability (% of DMSO): at 45.8 µM (top of the series)
Summary of the method: (§3)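 Inhibition of cell viability is measured here. Each line was plated at 500 cells per well, treated with MIPE 4.0 drugs, kept 48 hours at 37C, then assayed for ATP content by CellTiter-Glo luminescence.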

[4] = Quantitative High-Throughput drug screen in 47 multiple myeloma cell lines against the NCATS MIPE library collection: JJN3_DSMZ cell viability assay (AID 1918966; also: nearly all actives have a fitted effect of over 50% in size; also: potency is read from the fitted curve at half-maximal effect)
Summary of the method: as §3

[5] = Quantitative High-Throughput drug screen in 47 multiple myeloma cell lines against the NCATS MIPE library collection: Karpas25_ECACC cell viability assay (AID 1918968; also: potency is read from the fitted curve at half-maximal effect; nearly all actives have a fitted effect of over 35% in size)
Summary of the method: as §3

[6] = Quantitative High-Throughput drug screen in 47 multiple myeloma cell lines against the NCATS MIPE library collection: KMS12BM_JCRB cell viability assay (AID 1918971); also: nearly all actives have a fitted effect of over 35% in size; also: potency is read from the fitted curve at half-maximal effect
Summary of the method: (§4)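 Relative luminescence from CellTiter-Glo served as the viability signal, referenced to DMSO-treated (100%) and cell-free medium (0%) controls. Treatment lasted 48 hours at 37C with 500 cells per well.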

[7] = Quantitative High-Throughput drug screen in 47 multiple myeloma cell lines against the NCATS MIPE library collection: KMS12PE_JCRB cell viability assay (AID 1918972); settings: KMS12PE myeloma viability, CellTiter-Glo ATP, 48 h; viability: at 45.8 µM (top of the series); also: nearly all actives have a fitted effect of over 30% in size; also: potency is read from the fitted curve at half-maximal effect
Summary of the method: as §1

[8] = Quantitative High-Throughput drug screen in 47 multiple myeloma cell lines against the NCATS MIPE library collection: KMS20_JCRB cell viability assay (AID 1918973); settings: CellTiter-Glo ATP, 48 h; viability (% of DMSO): at 45.8 µM (top of the series); also: nearly all actives have a fitted effect of over 45% in size; also: potency is read from the fitted curve at half-maximal effect
Summary of the method: as §3

[9] = Quantitative High-Throughput drug screen in 47 multiple myeloma cell lines against the NCATS MIPE library collection: KMS26_JCRB cell viability assay (AID 1918975); settings: KMS26 myeloma cells viability, CellTiter-Glo ATP, 48 h; viability (% of DMSO): at 45.8 µM (top of the series); also: potency is read from the fitted curve at half-maximal effect; nearly all actives have a fitted effect of over 45% in size
Summary of the method: as §4

[10] = Quantitative High-Throughput drug screen in 47 multiple myeloma cell lines against the NCATS MIPE library collection: MMM1_PLB cell viability assay (AID 1918976); also: potency is read from the fitted curve at half-maximal effect; nearly all actives have a fitted effect of over 35% in size
Summary of the method: (§5)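 Plated at 500 cells per well, myeloma lines received MIPE 4.0 compounds by pin tool. Following 48 h culture at 37 °C, CellTiter-Glo luminescence gave viability relative to DMSO and media-only controls.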

[11] = Quantitative High-Throughput drug screen in 47 multiple myeloma cell lines against the NCATS MIPE library collection: MOLP8_DSMZ cell viability assay (AID 1918977); also: nearly all actives have a fitted effect of over 45% in size; also: potency is read from the fitted curve at half-maximal effect
Summary of the method: as §5

[12] = Quantitative High-Throughput drug screen in 47 multiple myeloma cell lines against the NCATS MIPE library collection: KHM11_PLB cell viability assay (AID 1918962); settings: KHM11 myeloma cell viability, CellTiter-Glo ATP luminescence, 48 h; viability, % of DMSO control: at 45.8 µM (top of the series)
Summary of the method: as §2

[13] = Quantitative High-Throughput drug screen in 47 multiple myeloma cell lines against the NCATS MIPE library collection: KMS21BM_JCRB cell viability assay (AID 1918974); settings: ATP luminescence, 48 h; viability: at 45.8 µM (top of the series); also: potency is read from the fitted curve at half-maximal effect
Summary of the method: as §3

[14] = Quantitative High-Throughput drug screen in 47 multiple myeloma cell lines against the NCATS MIPE library collection: NCIH929_DSMZ cell viability assay (AID 1918978); settings: NCI-H929 myeloma viability, CellTiter-Glo ATP, 48 h; viability, % of control: at 45.8 µM (top of the series); also: nearly all actives have a fitted effect of over 35% in size; also: potency is read from the fitted curve at half-maximal effect
Summary of the method: as §5

[15] = Quantitative High-Throughput drug screen in 47 multiple myeloma cell lines against the NCATS MIPE library collection: OCIMY1_PLB cell viability assay (AID 1918979); also: nearly all actives have a fitted effect of over 35% in size; also: potency is read from the fitted curve at half-maximal effect
Summary of the method: as §5

[16] = Quantitative High-Throughput drug screen in 47 multiple myeloma cell lines against the NCATS MIPE library collection: KMS27_JCRB cell viability assay (AID 1918970); settings: KMS27 myeloma cells, CellTiter-Glo ATP viability, 48 h; viability (% of DMSO): at 45.8 µM (top of the series); also: nearly all actives have a fitted effect of over 30% in size; also: potency is read from the fitted curve at half-maximal effect
Summary of the method: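 Each line is seeded at 500 cells per well and treated with library compounds for 48 hours under 37 °C, 5% CO2. CellTiter-Glo is then added for 5 min at room temperature before median relative luminescence is recorded.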

[17] = Quantitative High-Throughput drug screen in 47 multiple myeloma cell lines against the NCATS MIPE library collection: MM1S_ATCC cell viability assay (AID 1918980); also: potency is read from the fitted curve at half-maximal effect; nearly all actives have a fitted effect of over 45% in size
Summary of the method: as §5

[18] = Quantitative High-Throughput drug screen in 47 multiple myeloma cell lines against the NCATS MIPE library collection: MM1R_ATCC cell viability assay (AID 1918981); also: nearly all actives have a fitted effect of over 35% in size
Summary of the method: as §5

[19] = Quantitative High-Throughput drug screen in 47 multiple myeloma cell lines against the NCATS MIPE library collection: H1112_PLB cell viability assay (AID 1918967; also: potency is read from the fitted curve at half-maximal effect; nearly all actives have a fitted effect of over 30% in size)
Summary of the method: as §3

CC1(N2CCC(n3c([C@@H]4CCCNC4)nc4ccccc43)CC2)CCCCCCC1
inconclusive: Potency [1] 5260 nM [cytotoxic, partial curve, poor fit] | Potency [2] 29600 nM [cytotoxic, single point] | Potency [3] 20900 nM [cytotoxic, partial curve, poor fit] | Potency [4] 18700 nM [cytotoxic, partial curve, poor fit] | Potency [8] 7430 nM [cytotoxic, full curve, poor fit] | Potency [9] 33200 nM [cytotoxic, single point] | Potency [10] 29600 nM [cytotoxic, single point] | Potency [11] 23500 nM [cytotoxic, partial curve, poor fit]
active: Potency [5] 18700 nM | Potency [6] 20900 nM | Potency [7] 7430 nM

CC[C@@]1(O)C(=O)OCc2c1cc1n(c2=O)Cc2cc3ccccc3nc2-1
active: Potency [1] 296 nM | Potency [12] 235 nM | Potency [3] 132 nM | Potency [8] 209 nM | Potency [9] 2350 nM | Potency [10] 935 nM | Potency [11] 132 nM
inconclusive: Potency [13] 33200 nM [rising, partial curve, poor fit]

CCNC(=O)C[C@@H]1N=C(c2ccc(Cl)cc2)c2cc(OC)ccc2-n2c(C)nnc21
inconclusive: Potency [12] 93.5 nM [cytotoxic, full curve] | Potency [8] 9.3 nM [cytotoxic, full curve, poor fit] | Potency [13] 37200 nM [rising, partial curve, poor fit] | Potency [14] 418 nM [cytotoxic, full curve]
active: Potency [1] 13.2 nM | Potency [3] 1660 nM | Potency [15] 1050 nM

O=S(=O)(F)Cc1ccccc1
inactive: Potency [4] | Potency [6] | Potency [7] | Potency [11] | Potency [14] | Potency [15]
inconclusive: Potency [1] 1320 nM [cytotoxic, full curve, poor fit] | Potency [2] 14800 nM [cytotoxic, partial curve, poor fit] | Potency [3] 1050 nM [cytotoxic, partial curve, poor fit] | Potency [16] 14800 nM [cytotoxic, partial curve, poor fit] | Potency [8] 1 nM [cytotoxic] | Potency [13] 4.7 nM [rising, full curve, poor fit] | Potency [9] 4180 nM [rising, partial curve, poor fit] | Potency [10] 83.3 nM [rising, full curve]

O=C(Oc1ccc([N+](=O)[O-])cc1)N1CCC(C(O)(c2ccc3c(c2)OCO3)c2ccc3c(c2)OCO3)CC1
inactive: Potency [16] | Potency [6] | Potency [11] | Potency [18]
inconclusive: Potency [1] 4690 nM [cytotoxic, partial curve, poor fit] | Potency [12] 296 nM [cytotoxic, partial curve, poor fit] | Potency [3] 3720 nM [cytotoxic, partial curve, poor fit] | Potency [4] 18.7 nM [rising, full curve] | Potency [5] 11800 nM [cytotoxic, full curve, poor fit] | Potency [8] 4.2 nM [cytotoxic, full curve, poor fit] | Potency [10] 11.8 nM [rising, full curve, poor fit] | Potency [14] 9350 nM [cytotoxic, full curve] | Potency [17] 8330 nM [cytotoxic, partial curve, poor fit]

C[C@@H]1CC[C@@]2(OC1)O[C@H]1C[C@H]3[C@@H]4CC=C5C[C@@H](O[C@@H]6O[C@H](CO)[C@@H](O[C@@H]7O[C@@H](C)[C@H](O)[C@@H](O)[C@@H]7O)[C@H](O)[C@@H]6O[C@@H]6O[C@@H](C)[C@H](O)[C@@H](O)[C@@H]6O)CC[C@]5(C)[C@@H]4CC[C@]3(C)[C@@H]1[C@H]2C
inconclusive: Potency [17] 2350 nM [cytotoxic, full curve, poor fit]
active: Potency [1] 1050 nM | Potency [12] 2960 nM | Potency [4] 2350 nM | Potency [19] 4690 nM | Potency [5] 3320 nM | Potency [8] 4180 nM | Potency [13] 1480 nM | Potency [15] 1660 nM

CC=C(C)C(=O)O[C@H]1C(C)=C2[C@@H]3OC(=O)[C@@](C)(O)[C@@]3(O)[C@@H](OC(=O)CCC)C[C@](C)(OC(C)=O)[C@@H]2[C@@H]1OC(=O)CCCCCCC
active: Potency [12] 332 nM | Potency [11] 41.8 nM | Potency [15] 105 nM
inconclusive: Potency [1] 1320 nM [rising, full curve, poor fit] | Potency [3] 1480 nM [rising, full curve, poor fit] | Potency [7] 372 nM [rising, full curve, poor fit] | viability (% of DMSO) [8] 4.51% [cytotoxic] | Potency [13] 372 nM [rising, full curve, poor fit]
